# Test system: human skeletal myotubes
# Test: Quantitative lipidomic analyses and TAG biosynthesis pathway modeling
# Format: cell-based
# Conditions: for K1, contribution of de novo glycerolphosphate biosynthetic pathway to TAG pool / K2, contribution of monoacylglycerol reacylation pathway to TAG pool / K3, contribution of pathway K3 to TAG pool: 10 μM SBI-477, 24 hours
# Description: Quantitative lipidomic analyses was performed on human skeletal myotubes exposed to bovine albumin serum (BSA) or 100 μM oleate in the presence of DMSO vehicle (white bars) or 10 μM SBI-477 (black bars) for 24 hours.
# Primary human myotubes were treated with BSA or 100 μM oleate with 10 μM SBI-477 or a vehicle control for 24 hours. The cells were added to […] in an Eppendorf tube and homogenized for 1 minute using a disposable soft tissue homogenizer. A 25 μL aliquot was used to determine the protein content (BCA protein assay kit, Thermo Scientific, Rockford, Ill.). The remaining homogenate was accurately transferred into a disposable glass culture test tube, and a mixture of lipid internal standards was added prior to lipid extraction for quantification of all reported lipid species. Lipid extraction was performed by using a modified Bligh and Dyer procedure as described previously (Wang and Han, 2014). Each lipid extract was resuspended into a volume of 500 μL of chloroform/methanol (1:1, v/v) per mg of protein and flushed with nitrogen, capped, and stored at −20° C. for lipid analysis. For ESI direct infusion analysis, lipid extract was further diluted to a final concentration of ˜500 fmol/μL, and the mass spectrometric analysis was performed on a QqQ mass spectrometer (Thermo TSQ VANTAGE, San Jose, Calif.) equipped with an automated nanospray device (TriVersa NanoMate, Advion Bioscience Ltd., Ithaca, N.Y.).
# Intracellular TAG can be formed through reacylation of DAG species generated from several pathways including a de novo glycerolphosphate biosynthetic pathway that involves dephosphorylation of phosphatidic acid (DAGPA), reacylation of monoacylglycerol (DAGMAG), and to a lesser extent, hydrolysis of phosphatidyl inositol (DAGPI). To explore the effects of SBI-477 on specific TAG biosynthesis pathways, a bioinformatics lipidomics modeling approach was used as previously described (Han, et al., Lipid Res. 2013; 54(4):1023-1032). This approach uses the individual TAG ion profile, as determined by mass spectrometry, to predict the relative contribution of each pathway to the overall cellular TAG pool. Experiments were conducted in skeletal myocytes in the absence and presence of oleate loading.
smiles,measurement,setting,value
"COc1ccc(-c2csc(NC(=O)c3ccc(OCC(=O)N4CCOCC4)c(OC)c3)n2)cc1 [Cpd. 7, 3-methoxy-N-(4-(4-methoxyphenyl)thiazol-2-yl)-4-(2-morpholino-2-oxoethoxy)benzamide]","K1, contribution of de novo glycerolphosphate biosynthetic pathway to TAG pool",BSA,0.50 ± 0.08
same,"K2, contribution of monoacylglycerol reacylation pathway to TAG pool",BSA,0.44 ± 0.10
same,"K3, contribution of pathway K3 to TAG pool",BSA,0.05 ± 0.03
same,"K1, contribution of de novo glycerolphosphate biosynthetic pathway to TAG pool",Oleate,0.36 ± 0.03
same,"K2, contribution of monoacylglycerol reacylation pathway to TAG pool",Oleate,0.63 ± 0.03
same,"K3, contribution of pathway K3 to TAG pool",Oleate,0.01 ± 0.02
same,Increase of monoacylglycerol reacylation pathway (K2) contribution,absence of exogenous oleic acid,10 fold

# Source: patent US11028061B2, “Modulators of myocyte lipid accumulation and insulin resistance and methods of use thereof” (Sanford Burnham Prebys Medical Discovery Institute, priority 2015, dated 2021)
